The values below come from publication doi:10.1101/2025.04.27.650851.

Sequences of proteins named here, by UniProt entry; tags and fusion partners are left off.
UniProt O60264: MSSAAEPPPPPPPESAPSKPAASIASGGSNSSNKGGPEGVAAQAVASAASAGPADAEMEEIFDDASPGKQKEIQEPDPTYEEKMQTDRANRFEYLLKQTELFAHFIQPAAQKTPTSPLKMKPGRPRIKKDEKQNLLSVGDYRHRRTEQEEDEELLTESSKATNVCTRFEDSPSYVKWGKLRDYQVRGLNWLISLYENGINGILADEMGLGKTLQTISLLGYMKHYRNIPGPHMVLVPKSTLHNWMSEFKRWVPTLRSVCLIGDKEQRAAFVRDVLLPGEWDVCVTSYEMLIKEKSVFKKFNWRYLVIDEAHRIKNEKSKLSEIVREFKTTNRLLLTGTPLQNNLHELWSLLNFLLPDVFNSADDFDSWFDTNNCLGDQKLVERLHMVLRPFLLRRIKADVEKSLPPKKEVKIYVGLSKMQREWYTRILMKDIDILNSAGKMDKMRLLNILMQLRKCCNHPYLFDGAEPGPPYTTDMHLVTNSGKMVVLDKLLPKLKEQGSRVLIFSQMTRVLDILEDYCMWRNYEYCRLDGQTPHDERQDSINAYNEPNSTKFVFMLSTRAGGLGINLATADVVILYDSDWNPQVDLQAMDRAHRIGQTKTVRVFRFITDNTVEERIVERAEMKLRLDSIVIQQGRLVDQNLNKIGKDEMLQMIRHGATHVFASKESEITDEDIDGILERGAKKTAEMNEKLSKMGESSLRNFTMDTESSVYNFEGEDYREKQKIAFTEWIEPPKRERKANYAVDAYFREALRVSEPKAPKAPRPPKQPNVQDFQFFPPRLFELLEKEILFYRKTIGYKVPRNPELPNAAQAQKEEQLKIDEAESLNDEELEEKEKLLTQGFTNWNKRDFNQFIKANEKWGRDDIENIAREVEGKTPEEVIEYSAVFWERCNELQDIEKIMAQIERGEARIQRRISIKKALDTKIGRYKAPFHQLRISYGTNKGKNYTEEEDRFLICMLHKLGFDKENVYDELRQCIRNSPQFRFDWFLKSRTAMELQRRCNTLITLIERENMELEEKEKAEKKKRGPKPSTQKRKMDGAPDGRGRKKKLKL

In this experiment the target is T1, CTCF-TurboID (UniProt P49711).
T1 sequence: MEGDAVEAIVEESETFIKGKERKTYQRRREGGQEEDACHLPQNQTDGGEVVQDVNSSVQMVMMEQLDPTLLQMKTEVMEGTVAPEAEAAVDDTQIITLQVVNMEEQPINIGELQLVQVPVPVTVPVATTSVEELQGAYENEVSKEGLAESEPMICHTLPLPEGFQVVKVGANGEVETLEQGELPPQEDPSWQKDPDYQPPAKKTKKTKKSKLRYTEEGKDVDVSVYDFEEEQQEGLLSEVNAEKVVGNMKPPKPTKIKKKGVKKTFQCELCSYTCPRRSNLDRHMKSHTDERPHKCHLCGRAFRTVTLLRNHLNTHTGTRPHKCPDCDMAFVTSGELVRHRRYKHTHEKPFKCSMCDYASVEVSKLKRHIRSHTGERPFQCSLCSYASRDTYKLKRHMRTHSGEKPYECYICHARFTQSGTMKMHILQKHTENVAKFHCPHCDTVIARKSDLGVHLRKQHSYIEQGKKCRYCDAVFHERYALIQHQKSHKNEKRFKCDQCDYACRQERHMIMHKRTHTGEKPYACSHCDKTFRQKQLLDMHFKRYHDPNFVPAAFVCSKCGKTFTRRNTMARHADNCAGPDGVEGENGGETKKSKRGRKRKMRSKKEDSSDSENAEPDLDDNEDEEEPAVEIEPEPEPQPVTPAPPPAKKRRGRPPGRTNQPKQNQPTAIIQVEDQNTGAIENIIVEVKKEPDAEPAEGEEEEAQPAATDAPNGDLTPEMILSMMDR
The experiment can be described thus: proximity labelling.

No constants are given. Whether binding was seen depends on the method and setting. In cells and extracts the contact can be indirect. A yes stands for co-enrichment or nearness to the bait. Other partners may have been found.

As to SMARCA5 (from UniProt O60264 1-1052), the binding entry is reported as “binds”.

B1: ZNF280C (protein, UniProt Q8ND82 1-737)
chain: MDDDKPFQPKNISKMAELFMECEEEELEPWQKKVEETQDEDDDELIFVGEISSSKPAISNILNRGHSSSSSKGIKSEPHSPGIPEIFRTASQRCRDPPSNPVAASPRFHLVSKSSQSSVTVENASKPDFTKNSQVGSDNSSILLFDSTQESLPPSQDIPAIFREGMKNTSYVLKHPSTSKVNSVTPKKPKTSEDVPQINPSTSLPLIGSPPVTSSQVMLSKGTNTSSPYDAGADYLRACPKCNVQFNLLDPLKYHMKHCCPDMITKFLGVIVKSERPCDEDKTDSETGKLIMLVNEFYYGRHEGVTEKEPKTYTTFKCFSCSKVLKNNIRFMNHMKHHLELEKQNNESWENHTTCQHCYRQYPTPFQLQCHIESTHTPHEFSTICKICELSFETEHILLQHMKDTHKPGEMPYVCQVCQFRSSTFSDVEAHFRAAHENTKNLLCPFCLKVSKMATPYMNHYMKHQKKGVHRCPKCRLQFLTSKEKAEHKAQHRTFIKPKELEGLPPGAKVTIRASLGPLQSKLPTAPFGCAPGTSFLQVTPPTSQNTTARNPRKSNASRSKTSKLHATTSTASKVNTSKPRGRIAKSKAKPSYKQKRQRNRKNKMSLALKNIRCRRGIHKCIECHSKIKDFASHFSIYIHCSFCKYNTNCNKAFVNHMMSSHSNHPGKRFCIFKKHSGTLRGITLVCLKCDFLADSSGLDRMAKHLSQRKTHTCQVIIENVSKSTSTSEPTTGCSLK
On to B1, for which the binding entry is on record as “binds”.
